US10426813B2, “Method to enhance endurance” (KYOWA HAKKO BIO CO., LTD., priority 2009, dated 2019)
Peptide text beside a SMILES is read from it.

How the values were obtained:
[1] = Plasma lactate, glucose, osmolality and electrolyte response to exercise; type: in vivo, human
From the text: On four of the five subsequent visits to the HPL, subjects dehydrated to 2.5% of their baseline body mass. On the occasion that a dehydration protocol was not employed, subjects reported to the HPL in a euhydrated state to provide a baseline blood draw and perform the exercise protocol. This trial (T1) provided baseline performance data for how subjects performed in optimal conditions without hydration stress. All performance comparisons were made to this trial. In one trial (T2) subjects achieved their goal weight (−2.5% of baseline body weight) and rested in a recumbent position for 45 minutes before commencing the exercise session. In the subsequent three trials subjects reached their goal weight (−2.5% of baseline body mass) and then rehydrated to −1.5% of their baseline body mass by drinking either water (T3) or two different doses (T4 and T5) of the alanyl-glutamine (ALA-GLU) supplement (0.05 g·kg^−1 and 0.2 g·kg^−1, respectively). During the hydration trials (T3-T5), the exercise protocol began 45 minutes following reaching their goal weight. During this time frame, subjects were rehydrated. The order of the trials was randomly determined.
Subjects consumed the supplement or placebo (water) following the dehydration protocol as part of their rehydration to −1.5% of their baseline body mass. The L-alanyl-L-glutamine supplement (0.2 g·kg^−1 or 0.05 g·kg^−1) (Kyowa Hakko USA, New York, N.Y.) was mixed with water and was indistinguishable in appearance and taste from the placebo.
A baseline (BL) blood draw occurred during T1. No other blood was drawn during that trial. The BL blood sample was drawn following a 15-min equilibration period prior to exercise. During trials T2-T5, blood draws occurred once goal body mass was achieved (DHY), immediately prior to the exercise stress (RHY), and immediately following the exercise protocol (IP). Subjects returned to the laboratory 24 hours post exercise for an additional blood draw (24P). All trial blood samples (DHY, RHY and IP) were obtained using a 20-gauge Teflon cannula placed in a superficial forearm vein using a 3-way stopcock with a male luer lock adapter. The cannula was maintained in the patient using an isotonic saline solution (with 10% heparin). IP blood samples were taken within 15 seconds of exercise cessation. All BL and 24P blood samples were drawn with a plastic syringe while the subject was in a seated position. These blood samples were obtained from an antecubital arm vein using a 20-gauge disposable needle equipped with a Vacutainer® tube holder (Becton Dickinson, Franklin Lakes, N.J.) with the subject in a seated position. Each subjects' blood samples were obtained at the same time of day during each session. Blood samples were collected into two Vacutainer® tubes, one containing SST® Gel and Clot Activator and the second containing EDTA. A small aliquot of whole blood was removed from the second tube and used for microcapillary determination of hematocrit. The remaining blood in that tube was used for hemoglobin and several of the hormonal and biochemical analyses. Hemoglobin measures were performed without freezing, but the remaining plasma was placed into separate 1.8-ml microcentrifuge tubes and frozen at −80° C. for later analysis. The blood in the first tube was allowed to clot at room temperature and subsequently centrifuged at 1500×g for 15 minutes. The resulting serum was placed into separate 1.8-ml microcentrifuge tubes and frozen at −80° C. for later analysis.
Hemoglobin was analyzed in triplicate from whole blood using the cyanmethemoglobin method (Sigma Diagnostics, St. Louis, Mo.). Hematocrit was analyzed in triplicate from whole blood via microcentrifugation (IEC micro-MB centrifuge, Needham, Mass.) and microcapillary technique. Plasma volume shifts following the workout were calculated using the formula of Dill & Costill (1974). […]

[2] = Cardiovascular changes during exercise protocol (heart rate, blood pressure, RER); type: in vivo, human; conditions: for Resting Heart Rate: mean ± SD
Procedure: Subjects reported to the Human Performance Laboratory (HPL) on six separate occasions. During the initial session, subjects performed a graded maximal aerobic capacity test (VO2 max) on an electromagnetically braked cycle ergometer (Ergo 800, SensorMedics, Inc., Yorba Linda, Calif.). The VO2 max test was administered to establish workloads for subsequent endurance tests. VO2, RER, and VE were measured using the MedGraphics ULTIMA metabolic system (MedGraphics Corporation, St. Paul, Minn.). Gas analyzers were calibrated using gas provided by MedGraphics Corporation: 1) calibration gas: 5% CO2, 12% O2, balance N2; and 2) reference gas: 21% O2, balance N2. Gas calibration was conducted before each trial. Heart rate (HR) was measured using a wireless HR monitor (Pacer, Polar CIC, Inc., Port Washington, N.Y.). On four of the five subsequent visits to the HPL, subjects dehydrated to 2.5% of their baseline body mass. On the occasion that a dehydration protocol was not employed, subjects reported to the HPL in a euhydrated state to provide a baseline blood draw and perform the exercise protocol. This trial (T1) provided baseline performance data for how subjects performed in optimal conditions without hydration stress. All performance comparisons were made to this trial. In one trial (T2) subjects achieved their goal weight (−2.5% of baseline body weight) and rested in a recumbent position for 45 minutes before commencing the exercise session. In the subsequent three trials subjects reached their goal weight (−2.5% of baseline body mass) and then rehydrated to −1.5% of their baseline body mass by drinking either water (T3) or two different doses (T4 and T5) of the alanyl-glutamine (ALA-GLU) supplement (0.05 g·kg^−1 and 0.2 g·kg^−1, respectively). During the hydration trials (T3-T5), the exercise protocol began 45 minutes following reaching their goal weight. During this time frame, subjects were rehydrated. The order of the trials was randomly determined. Subjects consumed the supplement or placebo (water) following the dehydration protocol as part of their rehydration to −1.5% of their baseline body mass. The L-alanyl-L-glutamine supplement (0.2 g·kg^−1 or 0.05 g·kg^−1) (Kyowa Hakko USA, New York, N.Y.) was mixed with water and was indistinguishable in appearance and taste from the placebo. After dehydration and rehydration (except during trial T2), subjects began the exercise protocol. Subjects exercised at a workload that elicited 75% of their VO2 max on a cycle ergometer. Subjects were encouraged to give their best effort during each trial, and were verbally encouraged throughout each exercise trial. Oxygen consumption, minute ventilation, respiratory exchange ratio, and heart rate were measured continuously. Heart rate and blood pressure were recorded before and at the conclusion of exercise. Time to exhaustion was determined as the time that the subject could no longer maintain the workload and/or reach volitional exhaustion.

[3] = T4, 0.05 g·kg^−1, DHY (before supplement)
[4] = T5, 0.2 g·kg^−1, DHY (before supplement)
[5] = T4, 0.05 g·kg^−1, immediate post exercise
[6] = T5, 0.2 g·kg^−1, immediate post exercise

With `C[C@H](N)C(=O)N[C@@H](CCC(N)=O)C(=O)O` [alanyl-glutamine, L-alanyl-L-glutamine] (H-Ala-Gln-OH) the “Plasma Lactate” value ([1]; T4, 0.05 g·kg^−1, DHY (after dehydration, before supplement)) was 2.0 ± 0.6 mmol/L, the “Plasma Glucose” value [1, 3] was 6.4 ± 1.4 mmol/L and the “Plasma Osmolality” value [1, 3] was 296 ± 4 mOsm. The “Plasma Potassium” value [1, 3] was 4.1 ± 0.3 mmol/L, the “Plasma Sodium” value [1, 3] was 141.1 ± 2.5 mmol/L and the “Plasma Glucose” value ([1]; T4, 0.05 g·kg^−1, IP) was 8.4 ± 1.9 mmol/L. For the same compound, the “Plasma Osmolality” value ([1]; T4, 0.05 g·kg^−1, IP) was 302 ± 5 mOsm, the “Plasma Potassium” value ([1]; T4, 0.05 g·kg^−1, IP) was 4.4 ± 0.4 mmol/L and the “Plasma Sodium” value ([1]; T4, 0.05 g·kg^−1, IP) was 140.7 ± 2.0 mmol/L. The “Plasma Lactate” value ([1]; T4, 0.05 g·kg^−1, IP (immediate post-exercise)) was 9.9 ± 4.2 mmol/L, the “Plasma Glucose” value ([1]; T4, 0.05 g·kg^−1, RHY) was 6.4 ± 0.9 mmol/L and the “Plasma Osmolality” value ([1]; T4, 0.05 g·kg^−1, RHY) was 292 ± 4 mOsm. For the same compound, the “Plasma Potassium” value ([1]; T4, 0.05 g·kg^−1, RHY) was 4.3 ± 0.6 mmol/L, the “Plasma Sodium” value ([1]; T4, 0.05 g·kg^−1, RHY) was 138.7 ± 1.9 mmol/L and the “Plasma Lactate” value ([1]; T4, 0.05 g·kg^−1, RHY (after rehydration, before exercise)) was 2.0 ± 0.5 mmol/L. For the same compound, the “Plasma Lactate” value ([1]; T5, 0.2 g·kg^−1, DHY (after dehydration, before supplement)) was 1.7 ± 0.6 mmol/L, the “Plasma Glucose” value [1, 4] was 5.7 ± 1.2 mmol/L and the “Plasma Osmolality” value [1, 4] was 298 ± 6 mOsm. The “Plasma Potassium” value [1, 4] was 4.0 ± 0.3 mmol/L, the “Plasma Sodium” value [1, 4] was 141.2 ± 1.4 mmol/L and the “Plasma Glucose” value ([1]; T5, 0.2 g·kg^−1, IP) was 7.4 ± 2.6 mmol/L. For the same compound, the “Plasma Osmolality” value ([1]; T5, 0.2 g·kg^−1, IP) was 303 ± 7 mOsm, the “Plasma Potassium” value ([1]; T5, 0.2 g·kg^−1, IP) was 4.5 ± 0.6 mmol/L and the “Plasma Sodium” value ([1]; T5, 0.2 g·kg^−1, IP) was 140.2 ± 1.3 mmol/L. The “Plasma Lactate” value ([1]; T5, 0.2 g·kg^−1, IP (immediate post-exercise)) was 11.7 ± 2.2 mmol/L, the “Plasma Glucose” value ([1]; T5, 0.2 g·kg^−1, RHY) was 5.6 ± 1.2 mmol/L and the “Plasma Osmolality” value ([1]; T5, 0.2 g·kg^−1, RHY) was 294 ± 4 mOsm. The “Plasma Potassium” value ([1]; T5, 0.2 g·kg^−1, RHY) was 4.1 ± 0.4 mmol/L, the “Plasma Sodium” value ([1]; T5, 0.2 g·kg^−1, RHY) was 138.7 ± 1.6 mmol/L and the “Plasma Lactate” value ([1]; T5, 0.2 g·kg^−1, RHY (after rehydration, before exercise)) was 2.1 ± 0.4 mmol/L. The RER ([2]; T4, 0.05 g·kg^−1) was 1.08 ± 0.10, the “Resting DBP” value ([2]; T4, 0.05 g·kg^−1) was 79.0 ± 2.7 mmHg and the “Resting SBP” value ([2]; T4, 0.05 g·kg^−1) was 114.8 ± 5.2 mmHg. For the same compound, the “IP DBP” value [2, 5] was 88.3 ± 11.6 mmHg, the “IP Heart Rate” value [2, 5] was 183.0 ± 12.5 beats·min^−1 and the “IP SBP” value [2, 5] was 150.3 ± 23.0 mmHg. The RER ([2]; T5, 0.2 g·kg^−1) was 1.07 ± 0.08, the “Resting DBP” value ([2]; T5, 0.2 g·kg^−1) was 77.2 ± 5.9 mmHg and the “Resting SBP” value ([2]; T5, 0.2 g·kg^−1) was 113.0 ± 7.7 mmHg. The “IP DBP” value [2, 6] was 84.8 ± 11.9 mmHg, the “IP Heart Rate” value [2, 6] was 184.2 ± 13.0 beats·min^−1 and the “IP SBP” value [2, 6] was 152.5 ± 19.6 mmHg. The “Resting Heart Rate” value ([2]; trial T4, 0.05 g·kg^−1 oral in rehydration water) was 76.7 ± 17.6 beats · min^−1 and the “Resting Heart Rate” value ([2]; trial T5, 0.2 g·kg^−1 oral in rehydration water) was 76.9 ± 15.8 beats · min^−1.
